Primary screen of a compound library

Protein sequences, listed by entry. Tags and fused reporters are not part of them.
UniProt I6X8D2, whole entry: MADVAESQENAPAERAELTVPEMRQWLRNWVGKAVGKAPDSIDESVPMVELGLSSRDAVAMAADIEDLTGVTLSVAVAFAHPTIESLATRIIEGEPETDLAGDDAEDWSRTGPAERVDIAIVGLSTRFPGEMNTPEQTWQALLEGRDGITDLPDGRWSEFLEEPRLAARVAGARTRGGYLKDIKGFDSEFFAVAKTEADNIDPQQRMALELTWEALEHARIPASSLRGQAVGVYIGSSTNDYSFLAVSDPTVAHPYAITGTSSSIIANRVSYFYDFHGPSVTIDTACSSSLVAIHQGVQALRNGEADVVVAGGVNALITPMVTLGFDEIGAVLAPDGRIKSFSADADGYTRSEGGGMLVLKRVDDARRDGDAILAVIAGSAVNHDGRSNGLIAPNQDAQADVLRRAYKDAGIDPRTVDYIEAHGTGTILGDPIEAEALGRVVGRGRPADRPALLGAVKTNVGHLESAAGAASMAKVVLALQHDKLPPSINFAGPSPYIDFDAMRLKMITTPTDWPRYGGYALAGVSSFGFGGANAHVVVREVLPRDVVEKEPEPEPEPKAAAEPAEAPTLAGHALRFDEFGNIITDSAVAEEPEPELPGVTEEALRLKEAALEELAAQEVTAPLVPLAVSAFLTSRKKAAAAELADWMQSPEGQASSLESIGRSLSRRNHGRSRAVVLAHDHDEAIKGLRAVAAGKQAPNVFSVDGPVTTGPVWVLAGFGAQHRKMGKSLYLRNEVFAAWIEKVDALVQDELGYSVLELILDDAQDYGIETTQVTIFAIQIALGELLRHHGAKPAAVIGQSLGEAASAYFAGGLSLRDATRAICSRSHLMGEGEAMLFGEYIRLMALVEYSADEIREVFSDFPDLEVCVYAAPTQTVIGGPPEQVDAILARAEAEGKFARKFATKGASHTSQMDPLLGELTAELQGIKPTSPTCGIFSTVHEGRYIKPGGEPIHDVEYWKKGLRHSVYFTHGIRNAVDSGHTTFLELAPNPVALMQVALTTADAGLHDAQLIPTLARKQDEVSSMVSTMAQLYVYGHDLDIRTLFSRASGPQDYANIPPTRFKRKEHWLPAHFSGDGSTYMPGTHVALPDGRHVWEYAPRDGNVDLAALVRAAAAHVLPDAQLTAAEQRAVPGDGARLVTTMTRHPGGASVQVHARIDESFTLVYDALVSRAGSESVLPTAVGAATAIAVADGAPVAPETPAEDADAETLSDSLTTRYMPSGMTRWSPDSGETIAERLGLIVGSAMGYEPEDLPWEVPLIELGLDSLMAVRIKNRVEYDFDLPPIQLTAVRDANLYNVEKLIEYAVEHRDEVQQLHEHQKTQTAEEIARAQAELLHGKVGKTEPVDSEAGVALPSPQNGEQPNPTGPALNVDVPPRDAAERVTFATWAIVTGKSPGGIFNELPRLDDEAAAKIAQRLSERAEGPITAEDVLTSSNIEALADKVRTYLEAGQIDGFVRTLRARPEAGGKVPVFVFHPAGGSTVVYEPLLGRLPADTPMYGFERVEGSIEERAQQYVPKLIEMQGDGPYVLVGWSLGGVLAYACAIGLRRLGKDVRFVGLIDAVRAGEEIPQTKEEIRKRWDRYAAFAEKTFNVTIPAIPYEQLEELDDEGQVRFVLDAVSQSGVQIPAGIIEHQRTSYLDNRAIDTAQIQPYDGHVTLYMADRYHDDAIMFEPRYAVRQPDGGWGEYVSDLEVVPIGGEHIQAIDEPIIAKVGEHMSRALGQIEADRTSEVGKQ
UniProt P9WNZ1, whole entry: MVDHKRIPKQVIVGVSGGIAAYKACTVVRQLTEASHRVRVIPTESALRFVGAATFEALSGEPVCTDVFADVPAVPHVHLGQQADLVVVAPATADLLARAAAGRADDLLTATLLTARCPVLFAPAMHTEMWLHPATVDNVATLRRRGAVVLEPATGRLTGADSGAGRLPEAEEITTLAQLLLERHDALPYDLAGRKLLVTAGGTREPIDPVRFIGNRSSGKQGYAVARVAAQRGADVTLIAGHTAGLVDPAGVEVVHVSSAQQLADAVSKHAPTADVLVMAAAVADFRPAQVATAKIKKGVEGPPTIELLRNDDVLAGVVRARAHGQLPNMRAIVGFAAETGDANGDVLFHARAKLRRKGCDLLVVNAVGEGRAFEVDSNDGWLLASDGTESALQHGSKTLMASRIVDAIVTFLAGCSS
UniProt P9WPC5, whole entry: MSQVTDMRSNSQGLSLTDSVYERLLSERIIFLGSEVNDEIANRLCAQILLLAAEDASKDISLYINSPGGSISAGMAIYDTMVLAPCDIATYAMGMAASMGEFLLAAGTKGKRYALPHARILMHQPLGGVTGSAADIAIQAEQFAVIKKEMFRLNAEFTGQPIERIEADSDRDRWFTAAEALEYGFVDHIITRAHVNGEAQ
UniProt P9WPC3, whole entry partner: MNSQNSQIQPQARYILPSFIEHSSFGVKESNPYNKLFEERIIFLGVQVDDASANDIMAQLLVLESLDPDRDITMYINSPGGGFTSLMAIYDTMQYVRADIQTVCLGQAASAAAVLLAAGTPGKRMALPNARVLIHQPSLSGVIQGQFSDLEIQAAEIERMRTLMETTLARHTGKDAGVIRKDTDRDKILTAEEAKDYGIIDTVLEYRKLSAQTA
UniProt P9WFT3, whole entry: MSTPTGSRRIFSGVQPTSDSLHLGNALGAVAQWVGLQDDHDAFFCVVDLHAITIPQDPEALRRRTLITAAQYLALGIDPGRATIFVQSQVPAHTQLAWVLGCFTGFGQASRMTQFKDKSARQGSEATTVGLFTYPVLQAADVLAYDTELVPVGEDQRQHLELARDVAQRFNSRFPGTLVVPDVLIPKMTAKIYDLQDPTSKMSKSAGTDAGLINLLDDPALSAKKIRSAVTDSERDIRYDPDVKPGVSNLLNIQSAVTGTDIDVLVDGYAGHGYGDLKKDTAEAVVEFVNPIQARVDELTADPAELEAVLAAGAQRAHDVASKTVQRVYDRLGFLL

Each number is a percent effect as filed. The controls that fix the scale are not given in the record; negative values are as filed. The compounds are a random part of those screened. Two or more numbers in one place are separate tests of the same structure; such repeats can differ widely. A dash means the value is not listed here; it may have been measured.

Pks13 thioesterase: 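Enzyme assay of the thioesterase domain of polyketide synthase 13; the read-out is not stated. Target: Polyketide synthase Pks13, Mycobacterium tuberculosis (UniProt I6X8D2). Concentration: 30 µM. The record gives no direction; the compounds picked for IC50 retests had high values, so higher reads as stronger inhibition. Of about 67,000 compounds tested this way, about 300 (0.46%) reached 50% or more in at least one test.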
Toxoplasma: 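Assay of Toxoplasma gondii numbers, read through their beta-galactosidase reporter with a colour substrate. Compounds at 10 µM. The record gives no direction; the compounds picked for IC50 retests had high values, so higher reads as fewer parasites. About 67,000 compounds were tested under these conditions; 0.38% (about 260) showed 50% or more at least once.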
CoaBC: 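Enzyme assay of CoaBC with a phosphate dye (Biomol Green) read at 650 nm. Target: Coenzyme A biosynthesis protein CoaBC, Mycobacterium tuberculosis (UniProt P9WNZ1). Compounds at 30 µM. Direction is inferred from only a few compounds that gave an IC50; most scored high, so higher reads as stronger inhibition. Most strong results did not repeat in a second test. About 67,000 compounds were tested under these conditions; 0.06% (about 40) showed 50% or more at least once.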
ClpP1P2: 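Protease assay of ClpP1P2, read by the AMC dye that it sets free. Target: ClpP1P2, Mycobacterium tuberculosis (UniProt P9WPC5 and UniProt P9WPC3). Tested at 50 µM. Higher reads as stronger inhibition, judged from the few compounds that gave an IC50. Most other retested compounds had strongly negative values. Size under these conditions: about 69,000 compounds, about 10 of them at 50% or above in at least one test.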
Leishmania in macrophages: 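Cell assay of Leishmania donovani living inside macrophages; the read-out is not stated. Tested at 30 µM. Direction is inferred from retests: higher values go with stronger inhibition. Of about 69,000 compounds tested this way, about 1,000 (1.5%) reached 50% or more in at least one test.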
MtTrpRS: 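Tryptophan-tRNA ligase, Mycobacterium tuberculosis (UniProt P9WFT3). Enzyme assay of tryptophanyl-tRNA synthetase; the read-out is not stated. Compounds at 10 µM. Direction is not recorded; retested compounds ran higher, which suggests that high means inhibition. Of about 65,000 compounds tested this way, about 64 (0.098%) reached 50% or more in at least one test.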

SMILES | Pks13 thioesterase | Toxoplasma | CoaBC | ClpP1P2 | Leishmania in macrophages | MtTrpRS
COc1ccc(CNC[C@@]2(COc3cccnc3)C[C@@H](O)[C@@H](O)C2)cc1 | 0.869% | - | 14.79% | -4.299% | - | 12.82%
CCN(Cc1ccncc1)C1CCN(c2ccccc2)C1=O (centres undefined) | -8.437% | 2.639% | 3.949% | 3.805% | -28.34% | 3.579%
CN1CCN(c2ccc3ccc(C(=O)N4CCCO4)cn23)CC1 | 5.402% | - | -6.667% | -0.1867% | - | -1.833%
O=C(c1ccc(-n2cccc2)c(F)c1)N1CCCN2CCCC2C1 (centres undefined) | - | -3.182% | -1.946% | -0.4062% | -5.359% | 1.14%
C[C@H]1C(=O)NC[C@H]2CN(Cc3ccccc3)C[C@H]21 | - | - | 15.72% | 1.444% | - | -1.908%
COc1ccc(OC)c(-n2cnnc2CN)c1 | -21.34% | -6.409% | 5.04% | -7.411% | 24.06% | -1.211%
CC(C)N1CCC(N2CCN(C3CCCCC3)CC2CCO)CC1 (centres undefined) | -10.44% | 8.33% | -0.5102% | -24.69% | 16.87% | 0.1273%
O=C(c1cc2c(s1)CCC2)N1CCCC1Cn1cccn1 (centres undefined) | -9.305% | 25.02% | 4.215% | -27.26% | -36.57% | -1.834%
O=S(=O)(c1cccs1)N1Cc2nc(CN3CCCC3)oc2C1 | 1.167% | - | 3.094% | -9.689% | - | -
Cc1nc(-c2ccc(C(=O)O)cc2)cc(C2CCCN(C(C)C)C2)n1 (centres undefined) | 16.62% | -10.04% | -0.1205% | 17.46% | 21.09% & 1.994% | -
Cc1cccc(OCC(O)CN2CCN(c3nccs3)CC2)c1 (centres undefined) | -14.47% | 4.884% | -0.8264% | 7.794% | 12.95% | -0.2172%
C[C@@H]1CN(Cc2nc(C(N)=O)no2)CC[C@@]1(O)C1CC1 | -5.364% | 19.06% | 0.2433% | -10.86% | 17.46% | 1.67%
CCc1nnc(CN2CCOC(Cn3cccn3)C2)o1 (centres undefined) | -5.639% | -0.6437% | 5.774% | -10.43% | 4.988% | -3.438%
COc1ncccc1C(=O)N1CCCC1c1nc(-c2ccccc2)no1 (centres undefined) | -8.745% | -9.993% | 1.474% | -7.877% | 9.795% | -0.1282%
Cc1n[nH]c(C2CN(C(=O)c3cnc[nH]3)CCO2)n1 (centres undefined) | -24.69% | -1.713% | -2.564% | 4.311% | 13.71% | 0.07819%
CC(C)CC(=O)NCCn1nc(C2CCNC2)c2cccnc21 (centres undefined) | 20.13% | - | 4.657% | 1.638% | - | -
OC1CCCN(Cc2cn(CC3CCN(C4CCSCC4)CC3)nn2)C1 (centres undefined) | -7.982% | -23.45% | -1.217% | -9.618% | 21.28% | 0.07262%
CCCc1nc(C(C)(C)NC(=O)C2CC(=O)N(C3CCCC3)C2)no1 (centres undefined) | 1.682% | -6.414% | 4.082% | -10.97% | 18.15% | -7.733%
Cc1nc(CN2CCOCC23CCN(c2ccc(C#N)cc2)CC3)cs1.O=C(O)C(F)(F)F | - | 4.693% | - | - | 7.028% | -
Cc1ncccc1OC1(C(=O)NCc2noc(C(C)C)n2)CCNCC1 | 5.879% | 7.594% | -9.442% | -0.8307% | 2.97% | -0.4397%
Cc1ccccc1SC1CCN(C(=O)CCCS(N)(=O)=O)CC1 | -18.08% | - | 2.066% | -8.454% | 28.86% | 0.8039%
O=C(O)CSc1nc(-c2ccc3c(c2)CCC3)n[nH]1 | 7.784% | 10.42% | -6.776% | -6.993% | -10.87% | -10.32%
O=C(O)C(F)(F)F.O=C(O)C(F)(F)F.[H][C@@]12CCN(Cc3cccc(C#N)c3)[C@@]1([H])CC(=O)N2Cc1cccnc1 | - | 0.4992% | - | - | 16.27% | -
Cc1cnn(C2CN(Cc3nc(C(C)(C)C)no3)C2)c1 | -19.38% | 0.4235% | 0.7229% | 24.51% | 14.53% | -2.478%
Cc1ccc(CN2CCn3cc(CN(C)Cc4ccco4)nc3C2)o1.O=C(O)C(F)(F)F.O=C(O)C(F)(F)F | - | -5.1% | - | - | 14% | -
Cc1nccn1-c1ccc(=O)n(CCNC(=O)c2c(F)cccc2Cl)n1 | -8.983% | -8.354% | 2.179% | -17.35% | -3.008% | 3.099%
Cc1cc(C(=O)N[C@@H]2CCNC[C@H]2O)ccc1Cl | -20.3% | 2.077% | -25.37% | -7.539% | 5.897% | -0.2322%
CC(=O)N1CC[C@H]2OCC[C@@H](C(=O)NCc3ccco3)[C@@H]2C1 | -4.758% | - | 5.071% | 17.58% | - | -1.299%
CCCNC(=O)c1[nH]nc(C2CC2)c1Br | -14.35% | 6.999% | 1.401% | -4.416% | 2.437% | 1.534%
CC1CCC(NC(=O)CNC2(c3ccc(Br)cc3)CCOCC2)CC1 (centres undefined) | -22.83% | 28.43% | -1.168% | -53.96% | 12.34% | 1.774%
[H][C@]12CCN(c3ncc(CC)cn3)C[C@@]1([H])OCCN(C(=O)c1ccco1)C2 | - | -1.827% | - | - | 11.92% & 15.14% | -
CCc1ccc2nc(C)cc(C(=O)NC[C@@H]3CCNC[C@H]3O)c2c1 | 7.723% | 10.12% | 6.994% | 6.348% | -12.03% | -1.891%
Cc1nc([C@H]2C[C@@H]3CCN(Cc4scnc4C)C[C@H]3O2)no1 | -27.42% | - | 4.206% | -6.96% | - | -1.954%
Cc1cnn(CC2CCCN2Cc2cc(=O)n3ccccc3n2)c1 (centres undefined) | 2.935% | -0.2658% | 3.084% | -17.36% | 46.3% | -1.006%
CS(=O)(=O)N1CCN(c2cc(N3CCCC3CO)ncn2)CC1 (centres undefined) | -37.74% | 3.098% | 5.223% | 2.703% | 3.916% | -0.1023%

Repeated from the top, 3 entries:

| SMILES | Pks13 thioesterase | Toxoplasma | CoaBC | ClpP1P2 | Leishmania in macrophages | MtTrpRS |
|---|---|---|---|---|---|---|
| `COc1ccc(CNC[C@@]2(COc3cccnc3)C[C@@H](O)[C@@H](O)C2)cc1` | 0.869% | - | 14.79% | -4.299% | - | 12.82% |
| `CCN(Cc1ccncc1)C1CCN(c2ccccc2)C1=O` (centres undefined) | -8.437% | 2.639% | 3.949% | 3.805% | -28.34% | 3.579% |
| `CN1CCN(c2ccc3ccc(C(=O)N4CCCO4)cn23)CC1` | 5.402% | - | -6.667% | -0.1867% | - | -1.833% |

Data taken from ChEMBL document CHEMBL3988442, “University of Dundee, Small-Polar-MMV Screening Library” (2021).